Results reported in patent EP0063525A1, “Dibenzazepine tetracyclic derivatives, process for their preparation and pharmaceutical compositions containing them” (CENTRE NATIONAL DE LA RECHERCHE SCIENTIFIQUE (CNRS), priority 1981, dated 1982).

System: Souris
Experiment: tetrabenazine hypothermia
Format: in vivo
Details: before tétrabénazine
Method: Ce test permet de révéler également une activité antidépressive avec l'avantage d'une lecture plus rapide qu'avec la réserpine.
Les produits sont injectés 30 minutes avant l'administration de tétrabénazine.
Les températures sont relevées aux temps : 0, 30 minutes, 60 minutes, 90 minutes et 120 minutes.
Les souris sont réparties par lots de 5.
Les températures sont relevées avant l'injection de tétrabénazine, 30 minutes, 60 minutes, 90 minutes et 120 minutes après.
Le lot témoin comprend 20 souris.

In the case of O=C(O)CCCCCCNC1c2ccccc2CCc2ccccc21 [Aminep-tine, amineptine, reference compound], the “Température 30 minutes après administration du produit” value (product i.p. 80 mg/kg) is reported as 36,1 °C.

With CN(C)CCN1c2ccccc2C2ON=C(c3ccccc3)C2c2ccccc21 (stereo not drawn) [Composé 2, (β-diméthylaminoéthyl)-8 phényl-3 trihydro-3a,8, 12b (dibenzo [b,f]isoxazolo [4,5-d])azépine] the “Température 30 minutes après administration du produit” value (product i.p. 5 mg/kg) was 37,6 °C.

For CN(C)CCCN1c2ccccc2C2ON=C(c3ccccc3)C2c2ccccc21 (stereo not drawn) [compound 3, (γ-diméthylaminopropyl)-8 phényl-3 trihydro-3a, 8,12b (dibenzo [b,f]isoxazolo [4,5-d])azépine], the “Température 30 minutes après administration du produit” value (product i.p. 50 mg/kg) was 34,4 °C.

In the case of CN(C)CCN1c2ccccc2C2C(c3ccccc3)=NN(c3ccccc3)C2c2ccccc21 (stereo not drawn) [compound 7, (β-diméthylaminoéthyl)-8 diphényl-1,3 tétrahydro-1,3a, 8, 12b (dibenzo [b,f]pyrazolo [3,4-d]) azépine], the “Température 30 minutes après administration du produit” value (product i.p. 100 mg/kg) is reported as 35,3 °C.

For CN(C)CCN1c2ccccc2-c2c(-c3ccccc3)nn(-c3ccccc3)c2-c2ccccc21 [compound 13], the “Température 30 minutes après administration du produit” value (product i.p. 200 mg/kg) was 35,6 °C.

CN(C)CCCN1c2ccccc2-c2onc(-c3ccccc3)c2-c2ccccc21 [compound 18] was tested, and the “Température 30 minutes après administration du produit” value (product i.p. 50 mg/kg) was 35,2 °C.

CN(C)CCN1c2ccccc2C=Cc2ccccc21 [compound 20, (β-diméthylaminoéthyl)-5 dibenzo [b,f] 5H azépine, reference compound] was tested, and the “Température 30 minutes après administration du produit” value (product i.p. 50 mg/kg) was 35,6 °C.

In the case of CC(CN(C)C)CN1c2ccccc2C=Cc2ccccc21 (stereo not drawn) [compound 22, (méthyl-2 diméthylamino-3 propyl)-5 dibenzo [b,f] 5H azépine, reference compound], the “Température 30 minutes après administration du produit” value (product i.p. 25 mg/kg) is reported as 32,5 °C.

“( [1'-(β-hydroxyéthyl-4') pipérazinyl]-3propyl)-8 diphényl-1,3 tétrahydro-1,3a, 8,12b(dibenzo[b,f] pyrazolo [3,4-d])azépine [compound 10]” was tested, and the “Température 30 minutes après administration du produit” value (product i.p. 150 mg/kg) was 34 °C.
